Test results taken from PMC10349816.
Results are given in words; binding and its absence hold for the method and conditions named. In cells and extracts the contact can be indirect. Some results given as binding are weak or reduced against the parent protein; the word gives no strength.

Protein sequences, listed by entry. Tags and fused reporters are not part of them.
UniProt P25963: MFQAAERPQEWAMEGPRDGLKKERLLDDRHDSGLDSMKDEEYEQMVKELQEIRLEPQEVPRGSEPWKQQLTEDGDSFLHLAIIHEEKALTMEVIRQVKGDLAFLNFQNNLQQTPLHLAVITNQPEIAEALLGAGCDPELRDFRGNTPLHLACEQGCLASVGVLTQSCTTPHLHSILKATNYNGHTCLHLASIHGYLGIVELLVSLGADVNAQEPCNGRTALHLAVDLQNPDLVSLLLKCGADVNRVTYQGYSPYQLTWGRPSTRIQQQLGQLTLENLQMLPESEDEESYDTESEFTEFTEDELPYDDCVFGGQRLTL
UniProt P04792: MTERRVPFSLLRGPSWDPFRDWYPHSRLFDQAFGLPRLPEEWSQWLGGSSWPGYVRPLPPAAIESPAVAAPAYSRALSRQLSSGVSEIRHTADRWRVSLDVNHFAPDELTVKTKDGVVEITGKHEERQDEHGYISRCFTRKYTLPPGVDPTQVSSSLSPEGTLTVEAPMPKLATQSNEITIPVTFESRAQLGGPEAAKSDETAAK

Target: Ikβ-α (human (endogenous in MDA-MB-231 and MDA-MB-468)) (UniProt P25963)
Experiment: co-IP; co-IP of HSPB1 with Ikβ-α or NF-κB in MDA-MB-231 and MDA-MB-468 cells after treatment with 1 μM doxorubicin; which protein was precipitated is not told

- binding: binds
Substance: heat shock protein beta-1 (HSPB1) (from UniProt P04792 1-205)
